# In the supplement of paper PMC10849652:
# Chains of the proteins cited; added tags and fusions are not shown. Lines headed by an entry give the natural chain unless they say otherwise; changes in a name come on top.
# UniProt Q9GZU8: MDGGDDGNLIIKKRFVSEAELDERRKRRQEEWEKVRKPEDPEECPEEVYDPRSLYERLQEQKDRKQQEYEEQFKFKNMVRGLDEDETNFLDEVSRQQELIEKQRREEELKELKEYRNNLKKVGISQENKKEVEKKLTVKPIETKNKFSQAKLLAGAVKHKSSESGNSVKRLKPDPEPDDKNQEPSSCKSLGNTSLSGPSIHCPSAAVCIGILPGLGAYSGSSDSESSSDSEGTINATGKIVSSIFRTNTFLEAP
# UniProt Q9Y6I3: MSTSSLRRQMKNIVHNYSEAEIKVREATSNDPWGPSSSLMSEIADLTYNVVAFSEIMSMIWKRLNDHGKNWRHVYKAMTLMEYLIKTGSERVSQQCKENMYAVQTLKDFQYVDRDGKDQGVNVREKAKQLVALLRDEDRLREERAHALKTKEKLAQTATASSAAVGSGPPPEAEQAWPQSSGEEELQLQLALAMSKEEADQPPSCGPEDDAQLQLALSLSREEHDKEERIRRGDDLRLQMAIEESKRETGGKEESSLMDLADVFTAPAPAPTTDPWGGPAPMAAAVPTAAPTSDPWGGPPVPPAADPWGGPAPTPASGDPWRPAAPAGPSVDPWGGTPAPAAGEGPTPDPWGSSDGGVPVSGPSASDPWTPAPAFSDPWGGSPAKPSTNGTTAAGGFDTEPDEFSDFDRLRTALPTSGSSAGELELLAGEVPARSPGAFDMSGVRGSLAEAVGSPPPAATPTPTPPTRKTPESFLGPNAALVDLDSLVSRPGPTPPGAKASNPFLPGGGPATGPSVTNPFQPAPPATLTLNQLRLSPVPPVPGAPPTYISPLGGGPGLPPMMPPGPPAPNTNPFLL
# UniProt Q9UPT5: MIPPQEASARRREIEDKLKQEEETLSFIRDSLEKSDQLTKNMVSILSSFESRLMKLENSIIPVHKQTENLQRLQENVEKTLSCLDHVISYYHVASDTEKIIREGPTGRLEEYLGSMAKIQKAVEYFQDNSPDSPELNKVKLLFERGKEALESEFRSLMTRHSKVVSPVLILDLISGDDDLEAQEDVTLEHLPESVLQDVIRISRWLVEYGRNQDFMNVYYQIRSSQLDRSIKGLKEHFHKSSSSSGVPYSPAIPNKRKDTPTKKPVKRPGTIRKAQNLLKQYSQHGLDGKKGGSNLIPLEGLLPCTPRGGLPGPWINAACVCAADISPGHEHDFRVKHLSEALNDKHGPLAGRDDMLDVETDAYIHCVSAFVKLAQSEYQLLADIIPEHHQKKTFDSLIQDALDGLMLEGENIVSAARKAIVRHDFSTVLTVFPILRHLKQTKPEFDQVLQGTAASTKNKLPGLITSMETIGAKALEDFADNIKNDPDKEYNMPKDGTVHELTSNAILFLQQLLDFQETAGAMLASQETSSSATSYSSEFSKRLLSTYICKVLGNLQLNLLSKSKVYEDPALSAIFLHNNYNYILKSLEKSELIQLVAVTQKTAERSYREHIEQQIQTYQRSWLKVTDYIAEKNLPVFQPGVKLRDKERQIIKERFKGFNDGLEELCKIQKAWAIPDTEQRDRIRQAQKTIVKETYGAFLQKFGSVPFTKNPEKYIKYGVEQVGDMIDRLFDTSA
# UniProt Q8IYI6: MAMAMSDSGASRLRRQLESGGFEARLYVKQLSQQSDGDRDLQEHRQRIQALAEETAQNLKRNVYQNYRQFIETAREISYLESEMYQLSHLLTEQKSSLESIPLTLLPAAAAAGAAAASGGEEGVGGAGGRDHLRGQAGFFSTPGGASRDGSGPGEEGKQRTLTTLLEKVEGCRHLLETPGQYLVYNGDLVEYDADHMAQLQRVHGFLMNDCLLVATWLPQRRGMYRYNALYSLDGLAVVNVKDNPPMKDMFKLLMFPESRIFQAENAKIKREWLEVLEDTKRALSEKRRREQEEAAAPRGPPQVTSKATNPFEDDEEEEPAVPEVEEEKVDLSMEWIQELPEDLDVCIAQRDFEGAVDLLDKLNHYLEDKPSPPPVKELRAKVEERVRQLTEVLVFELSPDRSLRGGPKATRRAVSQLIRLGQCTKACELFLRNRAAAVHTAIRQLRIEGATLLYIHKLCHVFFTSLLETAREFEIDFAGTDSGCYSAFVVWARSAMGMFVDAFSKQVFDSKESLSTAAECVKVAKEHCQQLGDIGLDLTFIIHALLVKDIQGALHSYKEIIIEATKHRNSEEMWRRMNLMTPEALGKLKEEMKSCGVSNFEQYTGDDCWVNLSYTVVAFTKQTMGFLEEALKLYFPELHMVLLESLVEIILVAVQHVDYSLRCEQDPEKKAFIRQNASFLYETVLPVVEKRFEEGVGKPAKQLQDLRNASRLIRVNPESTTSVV
# UniProt Q9BSJ8: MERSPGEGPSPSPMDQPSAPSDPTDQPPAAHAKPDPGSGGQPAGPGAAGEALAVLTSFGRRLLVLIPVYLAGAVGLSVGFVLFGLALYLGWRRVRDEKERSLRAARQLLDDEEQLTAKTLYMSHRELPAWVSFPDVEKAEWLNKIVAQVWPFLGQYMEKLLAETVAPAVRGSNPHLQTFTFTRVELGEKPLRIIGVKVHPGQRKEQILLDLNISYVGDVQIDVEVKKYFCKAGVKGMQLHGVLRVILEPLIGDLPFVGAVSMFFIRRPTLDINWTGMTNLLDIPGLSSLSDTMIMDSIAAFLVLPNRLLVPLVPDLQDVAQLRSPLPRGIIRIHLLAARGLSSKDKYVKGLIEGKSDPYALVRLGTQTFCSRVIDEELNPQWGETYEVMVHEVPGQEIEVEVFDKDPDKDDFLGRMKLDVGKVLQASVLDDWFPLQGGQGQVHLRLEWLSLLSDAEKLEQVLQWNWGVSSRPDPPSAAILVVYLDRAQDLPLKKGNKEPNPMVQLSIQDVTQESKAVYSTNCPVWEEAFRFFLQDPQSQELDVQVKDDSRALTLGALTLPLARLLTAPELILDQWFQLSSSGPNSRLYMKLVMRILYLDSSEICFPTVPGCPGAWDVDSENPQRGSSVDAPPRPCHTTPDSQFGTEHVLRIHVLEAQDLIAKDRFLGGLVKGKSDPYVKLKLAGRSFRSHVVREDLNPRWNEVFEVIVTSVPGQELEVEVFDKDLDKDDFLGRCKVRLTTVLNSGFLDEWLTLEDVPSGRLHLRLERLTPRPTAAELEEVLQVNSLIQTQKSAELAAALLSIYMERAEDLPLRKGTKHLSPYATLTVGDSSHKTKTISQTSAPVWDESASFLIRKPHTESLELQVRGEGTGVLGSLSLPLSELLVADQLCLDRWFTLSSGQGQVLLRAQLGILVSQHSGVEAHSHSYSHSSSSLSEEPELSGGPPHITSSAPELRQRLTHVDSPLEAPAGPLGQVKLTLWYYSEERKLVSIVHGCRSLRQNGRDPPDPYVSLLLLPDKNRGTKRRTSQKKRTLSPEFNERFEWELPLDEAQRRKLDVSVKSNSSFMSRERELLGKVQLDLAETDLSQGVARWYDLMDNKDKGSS
# UniProt Q9C073: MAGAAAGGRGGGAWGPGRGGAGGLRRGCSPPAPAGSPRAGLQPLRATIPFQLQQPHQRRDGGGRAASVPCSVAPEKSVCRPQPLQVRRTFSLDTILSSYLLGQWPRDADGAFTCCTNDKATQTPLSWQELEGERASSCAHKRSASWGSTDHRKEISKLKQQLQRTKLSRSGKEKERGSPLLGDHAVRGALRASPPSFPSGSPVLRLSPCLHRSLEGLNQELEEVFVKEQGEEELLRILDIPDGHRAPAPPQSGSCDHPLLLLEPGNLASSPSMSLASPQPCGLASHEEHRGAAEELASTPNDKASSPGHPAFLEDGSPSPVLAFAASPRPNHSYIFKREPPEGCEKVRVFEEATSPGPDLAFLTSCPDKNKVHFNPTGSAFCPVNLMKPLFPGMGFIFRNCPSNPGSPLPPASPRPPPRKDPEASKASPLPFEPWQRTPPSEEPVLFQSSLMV
# UniProt Q03468, whole entry, looked up: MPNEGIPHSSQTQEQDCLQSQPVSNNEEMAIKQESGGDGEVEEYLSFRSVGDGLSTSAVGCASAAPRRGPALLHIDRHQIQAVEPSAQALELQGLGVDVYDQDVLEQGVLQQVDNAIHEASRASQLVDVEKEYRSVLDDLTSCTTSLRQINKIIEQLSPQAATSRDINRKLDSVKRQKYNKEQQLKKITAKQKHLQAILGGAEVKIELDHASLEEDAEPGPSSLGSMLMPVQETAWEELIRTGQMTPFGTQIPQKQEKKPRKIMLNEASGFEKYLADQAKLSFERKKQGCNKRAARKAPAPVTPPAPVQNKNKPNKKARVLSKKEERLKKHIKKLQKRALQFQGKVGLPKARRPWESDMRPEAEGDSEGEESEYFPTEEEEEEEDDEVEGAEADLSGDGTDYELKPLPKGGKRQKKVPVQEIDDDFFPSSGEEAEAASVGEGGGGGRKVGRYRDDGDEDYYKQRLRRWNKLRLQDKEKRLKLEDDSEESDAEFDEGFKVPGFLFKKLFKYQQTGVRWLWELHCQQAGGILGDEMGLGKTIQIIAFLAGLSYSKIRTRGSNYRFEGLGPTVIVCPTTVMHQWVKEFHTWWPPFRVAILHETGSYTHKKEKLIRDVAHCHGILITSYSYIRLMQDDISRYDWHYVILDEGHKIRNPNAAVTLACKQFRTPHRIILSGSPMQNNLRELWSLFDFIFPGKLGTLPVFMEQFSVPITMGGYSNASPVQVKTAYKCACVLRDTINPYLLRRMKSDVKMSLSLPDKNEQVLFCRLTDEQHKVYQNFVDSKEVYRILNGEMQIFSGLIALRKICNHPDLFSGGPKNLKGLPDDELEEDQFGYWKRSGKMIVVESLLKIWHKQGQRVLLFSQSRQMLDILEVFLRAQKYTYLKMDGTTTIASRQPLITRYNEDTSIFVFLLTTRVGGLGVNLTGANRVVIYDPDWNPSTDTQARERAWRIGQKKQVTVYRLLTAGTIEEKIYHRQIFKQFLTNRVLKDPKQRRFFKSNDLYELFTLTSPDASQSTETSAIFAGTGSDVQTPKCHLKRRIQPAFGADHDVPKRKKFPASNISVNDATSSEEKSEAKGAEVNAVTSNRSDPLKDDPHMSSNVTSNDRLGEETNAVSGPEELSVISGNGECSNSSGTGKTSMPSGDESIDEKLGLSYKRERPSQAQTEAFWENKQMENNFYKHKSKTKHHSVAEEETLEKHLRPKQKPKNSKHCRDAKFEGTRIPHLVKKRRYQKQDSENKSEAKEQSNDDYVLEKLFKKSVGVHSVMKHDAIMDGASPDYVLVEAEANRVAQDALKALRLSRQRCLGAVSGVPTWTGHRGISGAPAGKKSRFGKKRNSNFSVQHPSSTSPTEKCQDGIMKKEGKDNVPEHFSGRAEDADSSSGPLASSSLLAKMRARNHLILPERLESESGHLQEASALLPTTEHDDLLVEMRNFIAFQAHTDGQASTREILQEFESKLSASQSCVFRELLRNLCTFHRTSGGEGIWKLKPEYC
# UniProt Q9BPY3: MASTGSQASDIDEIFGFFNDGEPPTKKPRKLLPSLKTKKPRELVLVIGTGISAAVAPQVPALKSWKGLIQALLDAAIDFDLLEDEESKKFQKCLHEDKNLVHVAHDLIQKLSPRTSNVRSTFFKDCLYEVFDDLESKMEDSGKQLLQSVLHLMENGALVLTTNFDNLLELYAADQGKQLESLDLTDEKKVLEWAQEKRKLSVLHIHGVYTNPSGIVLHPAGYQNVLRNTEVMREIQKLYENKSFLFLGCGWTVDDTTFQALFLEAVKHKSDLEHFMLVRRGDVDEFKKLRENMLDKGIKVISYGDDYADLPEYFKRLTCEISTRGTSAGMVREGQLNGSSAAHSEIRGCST
# UniProt P10768: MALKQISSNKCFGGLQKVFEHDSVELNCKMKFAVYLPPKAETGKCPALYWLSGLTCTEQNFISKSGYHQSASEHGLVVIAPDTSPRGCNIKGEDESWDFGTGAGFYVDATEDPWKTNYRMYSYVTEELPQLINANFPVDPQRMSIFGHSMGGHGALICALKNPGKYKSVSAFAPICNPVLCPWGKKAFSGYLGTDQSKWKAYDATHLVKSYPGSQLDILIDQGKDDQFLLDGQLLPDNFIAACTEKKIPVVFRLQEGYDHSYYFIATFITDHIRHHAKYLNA
# UniProt O75477: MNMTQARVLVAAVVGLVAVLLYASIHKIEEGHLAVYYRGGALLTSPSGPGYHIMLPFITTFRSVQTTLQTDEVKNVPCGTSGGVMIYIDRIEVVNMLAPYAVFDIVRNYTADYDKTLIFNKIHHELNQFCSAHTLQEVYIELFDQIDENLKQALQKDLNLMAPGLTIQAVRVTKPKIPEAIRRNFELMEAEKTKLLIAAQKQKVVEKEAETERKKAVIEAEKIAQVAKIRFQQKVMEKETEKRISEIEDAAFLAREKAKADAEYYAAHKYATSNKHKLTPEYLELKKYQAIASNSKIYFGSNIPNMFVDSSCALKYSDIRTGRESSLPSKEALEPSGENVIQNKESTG
# UniProt Q8N128: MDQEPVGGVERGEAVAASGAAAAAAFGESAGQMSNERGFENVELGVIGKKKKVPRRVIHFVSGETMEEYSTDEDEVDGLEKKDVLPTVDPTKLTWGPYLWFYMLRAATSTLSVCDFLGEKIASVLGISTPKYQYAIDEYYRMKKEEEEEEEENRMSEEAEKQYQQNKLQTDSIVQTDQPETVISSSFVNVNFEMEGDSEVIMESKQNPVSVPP
# The list shows a part of the results. Residues, ends and D or L forms follow the SMILES beside them. *: point of attachment. Cbz = O=C(OCc1ccccc1)*
# How the values were obtained:
# Experiment in all cases: log2 fold change, soluble protein after heating vs DMSO (PISA); higher = thermal stabilisation; K562 cells, 10 uM, 30 min; active = over 0.2 and 3.5 SD of the protein, either way, in both replicates (recomputed)
# [1] = compound: C1COCCN1CCN2C3=CC=CC=C3N=C2NC(=O)C4=CC(=CC=C4)[N+](=O)[O-] [IRAK-1-4 Inhibitor I]
# Outline: (§1)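 K562 cells at 2×10^6 cells/mL were treated for 30 min with 10 μM compound, and aliquots were heated for 3 min over 48°C-58°C before pooling. Extraction used PBS with 0.5% NP-40 at 4°C, and soluble protein was the supernatant after 21,000xg for 90 min, measured by TMTpro 16plex LC-MS/MS with channel sums equalised. Thermal stability values, relative to control samples and from duplicates, are log2 fold changes.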
# [2] = compound: C=CC(=O)N1CCC[C@@H](n2nc(-c3ccc(Oc4ccccc4)cc3)c3c(N)ncnc32)C1 [ibrutinib]
# Outline: as §1
# [3] = compound: CC(=O)c1cnc2ccc(-c3cc(Cl)c(O)c(Cl)c3)nc2c1N[C@H]1CC[C@H](CN(C)C)CC1
# Outline: as §1
# [4] = compound: CC(C)(C)Cn1c(N)nc2ccc(-c3[nH]c(C(C)(C)C)nc3-c3ccc(F)cc3)nc21 [ralimetinib]
# Outline: as §1
# [5] = compound: CC(C)(O)CC(=O)NCCn1ccc2ncnc(Nc3ccc(Oc4cccc(C(F)(F)F)c4)c(Cl)c3)c21
# Outline: as §1
# [6] = compound: CC(C)C1=C2N=C(C=C(N2N=C1)NCC3=CC=CC=C3)NCCCCCCN
# Outline: as §1
# [7] = compound: CC(C)C[C@@H](C=O)NC(=O)[C@H](CC(C)C)NC(=O)[C@H](CC(C)C)NC(=O)OCc1ccccc1
# Outline: as §1
# [8] = compound: CC(C)N(C[C@H]1O[C@@H](n2cnc3c(N)ncnc32)[C@H](O)[C@@H]1O)[C@H]1C[C@@H](CCc2nc3cc(C(C)(C)C)ccc3[nH]2)C1 [pinometostat]
# Outline: as §1
# [9] = compound: CC1=C(C(CC(=O)N1)C2=CC=C(C=C2)C(F)(F)F)C(=O)NC3=C(C=C4C(=C3)C=NN4)F
# Outline: as §1
# [10] = compound: CC1=C(C2=C(C=C1)C(=O)C3=CC=CC=C3N2CCCN)C
# Outline: as §1
Target,log2 fold change [1],log2 fold change [2],log2 fold change [3],log2 fold change [4],log2 fold change [5],log2 fold change [6],log2 fold change [7],log2 fold change [8],log2 fold change [9],log2 fold change [10]
EPCAM (UniProt P16422),inactive: 0.056,inactive: 0.024,inactive: 0.008,inactive: 0.011,inactive: 0.008,inactive: 0.079,inactive: 0.078,inactive: -0.012,inactive: -0.033,inactive: 0.002
F2 (UniProt P00734),inactive: 0.005,inactive: 0.333,inactive: 0.001,inactive: -0.048,inactive: -0.02,inactive: 0.018,inactive: -0.035,inactive: -0.014,inactive: 0.004,inactive: -0.144
FAM192A (UniProt Q9GZU8),inactive: 0.03,inactive: -0.016,inactive: 0.037,inactive: -0.069,inactive: 0.011,inactive: 0.025,inactive: 0.007,inactive: -0.027,inactive: 0.027,inactive: -0.012
EPN1 (UniProt Q9Y6I3),inactive: 0.04,inactive: 0.01,inactive: -0.043,inactive: 0.01,inactive: -0.044,inactive: -0.042,inactive: 0.025,inactive: 0.001,inactive: -0.026,inactive: -0.009
ERAP1 isoform 2 (UniProt Q9NZ08),inactive: -0.046,inactive: -0.018,inactive: 0.021,inactive: 0.037,inactive: 0.021,inactive: -0.039,inactive: 0.038,inactive: 0.022,inactive: -0.007,inactive: 0.019
EXTL2 (UniProt Q9UBQ6),inactive: -0.018,inactive: 0.019,inactive: -0.073,inactive: -0.061,inactive: 0.062,inactive: 0.01,inactive: 0.041,inactive: 0,–,inactive: 0.12
ETNK1 (UniProt Q9HBU6),inactive: 0.035,inactive: -0.05,inactive: 0.044,inactive: -0.017,inactive: -0.205,inactive: 0.087,inactive: 0.043,inactive: 0.019,–,inactive: 0.079
EXOC7 (UniProt Q9UPT5),inactive: -0.047,inactive: -0.029,inactive: 0.002,inactive: 0.049,inactive: -0.109,inactive: -0.276,inactive: 0.044,inactive: 0.043,–,inactive: 0.045
EXOC8 (UniProt Q8IYI6),inactive: -0.094,inactive: -0.001,inactive: 0.014,inactive: 0.049,inactive: -0.128,active: -0.317,inactive: -0.032,inactive: 0.051,–,inactive: -0.002
EVC2 (UniProt Q86UK5),inactive: 0.052,inactive: 0.032,inactive: -0.061,inactive: -0.15,inactive: 0.038,inactive: 0.064,inactive: 0.038,inactive: -0.011,–,inactive: -0.014
ESYT1 isoform 2 (UniProt Q9BSJ8),inactive: -0.126,inactive: -0.046,inactive: -0.048,inactive: 0,inactive: -0.075,active: -0.321,inactive: 0.053,inactive: 0.152,–,inactive: 0.031
EXOC6 (UniProt Q8TAG9),inactive: -0.046,inactive: -0.007,inactive: -0.014,inactive: 0.102,inactive: -0.084,active: -0.397,inactive: 0.042,inactive: 0.056,–,inactive: 0.032
FADS3 (UniProt Q9Y5Q0),inactive: 0.029,inactive: 0.018,inactive: -0.031,inactive: -0.064,inactive: -0.121,inactive: -0.011,inactive: 0.102,inactive: 0.038,–,inactive: 0.054
FAM117A (UniProt Q9C073),inactive: -0.004,inactive: 0.001,active: -0.833,inactive: -0.125,inactive: -0.068,inactive: -0.102,inactive: 0.126,inactive: -0.003,–,inactive: 0.011
ERCC6 (UniProt Q03468),inactive: 0.05,inactive: -0.079,inactive: 0.11,inactive: 0.05,inactive: -0.094,inactive: -0.015,inactive: 0.018,inactive: -0.078,–,inactive: -0.041
"FADS1, A0A0A0MR51",inactive: 0.085,inactive: 0.015,inactive: -0.07,inactive: 0.017,active: 0.355,inactive: -0.044,inactive: 0.05,inactive: 0.027,–,inactive: 0.003
FAM118B (UniProt Q9BPY3),inactive: 0.039,inactive: 0.073,inactive: -0.118,inactive: 0.051,inactive: -0.199,inactive: -0.145,inactive: 0.065,inactive: -0.024,–,inactive: 0.042
ESD (UniProt P10768),inactive: 0.021,inactive: 0.037,inactive: 0.017,inactive: -0.044,inactive: 0,inactive: 0.062,inactive: -0.021,inactive: -0.051,inactive: 0.024,inactive: 0.129
F5 (UniProt P12259),inactive: 0.006,inactive: 0.064,inactive: 0.003,inactive: -0.042,inactive: 0.168,inactive: -0.088,inactive: 0.001,inactive: -0.016,–,inactive: -0.129
FAM207A (UniProt Q9NSI2),inactive: -0.043,inactive: -0.082,inactive: 0.057,inactive: 0.123,inactive: -0.033,inactive: -0.066,inactive: 0.088,inactive: 0.024,–,inactive: 0.038
EPHX2 (UniProt P34913),inactive: 0.044,inactive: 0.096,inactive: -0.024,inactive: -0.026,inactive: -0.018,active: 0.285,inactive: 0.012,inactive: 0.144,–,inactive: -0.006
ERCC2 (UniProt P18074),inactive: -0.01,inactive: 0.003,inactive: -0.165,inactive: 0.014,inactive: 0.016,inactive: -0.068,inactive: 0.03,inactive: 0.078,–,inactive: -0.016
EXOC4 (UniProt Q96A65),inactive: -0.123,inactive: -0.028,inactive: -0.007,inactive: 0.024,inactive: -0.099,active: -0.442,inactive: 0.04,inactive: 0.143,–,inactive: -0.01
ERLIN1 (UniProt O75477),inactive: -0.073,inactive: -0.06,inactive: 0.105,inactive: 0.054,inactive: -0.018,active: -0.269,inactive: -0.007,inactive: 0.098,–,inactive: 0.068
FAM177A1 isoform 2 (UniProt Q8N128),inactive: 0.042,inactive: 0.038,inactive: 0.033,inactive: 0,inactive: -0.242,inactive: -0.245,inactive: 0.029,inactive: 0.081,–,inactive: -0.019
FAF2 (UniProt Q96CS3),inactive: 0,inactive: -0.026,inactive: -0.034,inactive: 0.103,inactive: -0.029,inactive: -0.044,inactive: 0.03,inactive: 0.053,–,inactive: 0.044

# No new results follow: an excerpt of the list.
Target,log2 fold change [1],log2 fold change [2],log2 fold change [3],log2 fold change [4],log2 fold change [5],log2 fold change [6],log2 fold change [7],log2 fold change [8],log2 fold change [9],log2 fold change [10]
EXOC7 (UniProt Q9UPT5),inactive: -0.047,inactive: -0.029,inactive: 0.002,inactive: 0.049,inactive: -0.109,inactive: -0.276,inactive: 0.044,inactive: 0.043,–,inactive: 0.045
EXOC8 (UniProt Q8IYI6),inactive: -0.094,inactive: -0.001,inactive: 0.014,inactive: 0.049,inactive: -0.128,active: -0.317,inactive: -0.032,inactive: 0.051,–,inactive: -0.002
